# The supplement of paper PMC10338343
# ± gives the standard deviation. The list shows a part of the results, in another mix than the full data. Many entries were measured with a wide error.
# Test system: MILI (PIWIL2) piRISC loaded with piRNA #2 (26 nt)
# Assay: pre-steady-state target cleavage rate (min^-1); MIWI and MILI are mouse PIWI proteins and EfPiwi is from a freshwater sponge; tags in brackets are library labels; higher = faster piRNA-guided slicing of the target
# Conditions: guide: piRNA #2 5'p-UUAGGUAACCCAGUAGAUCCAGAGGA; auxiliary factor: 500 nM mouse GTSF1
# Outline: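 Sequencing of uncleaved targets, normalised to depth and to weakly complementary targets, was the readout of this Cleave-'n-Seq assay. A transcribed, DNA-blocked target RNA library (0.1 nM) was mixed with 1 nM active affinity-purified piRISC carrying one synthetic guide, with or without 500 nM GTSF1 partner protein, in HEPES–potassium acetate buffer at 33 °C for 0–8 or 0–960 min. Three trials were pooled, k3 was capped at 0.0001 min^-1, and a burst-and-steady-state fit gave the pre-steady-state cleavage rate.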
row,Sequence,pre-steady-state target cleavage rate
1,CUUAAGGACUGGAUCAACUGGGUAACCUAA,0.000731 ± 0.024
2,CUUAAGGAGACCUAGAUGAGGGAUUACCUAA,0.000105 ± 0.061
3,CUUAAGGAGAGGAACUACUGGGUUACCUUA,0.00152 ± 0.009
4,CUUAACCUCUGCAUCUACAGGGUUACCUAA,0.0773 ± 0.014
5,CUUAACCUCAGGAUCUACUCGGUUACCUAA,0.00154 ± 0.012
6,CUUAAGGACUGGAUCUACUGGGUUACGUUA,0.00567 ± 0.0069
7,CUUAAGGUCUGGAUCUCACUGGGUUACCUAA,0.000441 ± 0.014
8,CUUAAGGAGACCAUCUACUGGGUUACCUAC [g2:g18:cont:t1C],0.0011 ± 0.013
9,CUUAAGGUCUGGAUGUACUGGGAUACCUAA,0.0141 ± 0.01
10,CUUAAGGAGACCUACUACUGGGUAUACCUAA,0.0005 ± 0.012
11,CUUAAGGAGUGGUUCUACUCGGUUACCUAA,0.000548 ± 0.021
12,CUUAAGGAGACGAACUACAGGGUUACCUAA,0.00116 ± 0.0077
13,CUUAAGGAGACCAUCUACUUGGGUUACCUAA,0.000776 ± 0.011
14,CUUAAGGAGACCUUCUACUGGGUCUACCUAA,0.000497 ± 0.021
15,CUUAAGGAGUGGAACUACUGGGAUACCUAA,0.000647 ± 0.017
16,CUUAAGGAGACCUUCUUACUGGGUUACCUAA,0.000161 ± 0.021
17,CUUAAGGACUGGAUCUACUGGAUUACCUAA,0.003 ± 0.011
18,CUUAAGGACUGGAACUACUGGGUUACGUAA,0.00202 ± 0.014
19,CUUAAGCUCUGGAUCUACUGGCUUACCAAA,0.000391 ± 0.027
20,CUUAAGGAGACCUAGUACUGGGUUACUAA,0.000143 ± 0.036
21,CUUAAGGAGAGGAUCUACUGGGUUACUAA,0.00033 ± 0.03
22,CUUAAGGUCUGGAUCUACAGGGUUAGCUAA,0.0446 ± 0.012
23,CUUAAGGAGACCAUCUUCAGGGUUACCUAA,0.00174 ± 0.0052
24,CUUAAGGACUGAGAUCUACUGGGUUACCUAA,0.0114 ± 0.014

row,Sequence,pre-steady-state target cleavage rate
1,CUUAUCCUCUGGAUCUACUGGCUAACCUAA,0.000544 ± 0.019
2,CUUAUCCUCUCCUUCUACUGGGUUACCUAA,0.106 ± 0.023
3,CUUAAGGAGACGAUCUACUAGGUUACCUAA,0.0037 ± 0.0043
4,CUUAUACUCUGGAUCUACUGGGUUACCUAA,0.0651 ± 0.014
5,CUUAAGGAGUGGAUCUACUGGGUUACCCAA,0.0032 ± 0.0046
6,CUUAAGCUCUGGAUCUACUGGAGUUACCUAA,0.00227 ± 0.006
7,CUUAUCCUCUGGAACUACUGGGUUACGUAA,0.197 ± 0.068
8,CUUAAGGAGAGGAUCUACUGGGUUACGUUA,0.000696 ± 0.018
9,CUUAAGGAGACCUACUACUGGUUACCUAA,0.000237 ± 0.019
10,CUUAAGGAGGGGAUCUACUGGGUUACCUAA,0.0293 ± 0.022
11,CUUAAGGAGACCUUCUACUGGGUUGACCUAA,0.000778 ± 0.014
12,CUUAAGGAGACGAACUACUGGGUUACCUAA,0.000127 ± 0.042
13,CUUAACCUCAGGAUCUACUGGCUUACCUAA,0.0013 ± 0.01
14,CUUAAGGAGACCUAGAUCAGGGUUACCUAA,0.000383 ± 0.013
15,CUUAAGCUCUGGAUGUACUCGGUUACCUAA,0.00165 ± 0.0054
16,CUUAAGCUCUGGAUCUACUGGUUACCUAA,0.00171 ± 0.0047
17,CUUAAGGACUGGAUCUACUGGGUUACCAAA,0.00249 ± 0.0096
18,CUUAUCCUCUGGAUGUACUCGGUUACCUAA,0.00156 ± 0.0072
19,CUUAAGGAGUGGAUCUAGUGGGUUAGCUAA,0.000372 ± 0.025
20,CUUAAGGAGACCUAGAUGACGGUUUACCUAA,0.00039 ± 0.013
21,CUUAAGGAGUGGAUCUACUGCGUUACGUAA,0.000368 ± 0.026
22,CUUAAGGAGAGGAUCUACUGGGUGACCUAA,0.00141 ± 0.0078
23,CUUAUCCUCUGGAACUACUGGGUUACCUAA,0.188 ± 0.042
24,CUUAAGGAGACCUUGUACAGGGUUACCUAA,0.000214 ± 0.024

# Single values from the results shown:
# CUUAAGGAGACCUUCUUACUGGGUUACCUAA | pre-steady-state target cleavage rate: 0.000161 ± 0.021
# CUUAAGGAGUGGAUCUAGUGGGUUAGCUAA | pre-steady-state target cleavage rate: 0.000372 ± 0.025
# CUUAAGGAGACCUAGAUGACGGUUUACCUAA | pre-steady-state target cleavage rate: 0.00039 ± 0.013
# CUUAAGGAGACCAUCUACUGGGUUACCUAC [g2:g18:cont:t1C] | pre-steady-state target cleavage rate: 0.0011 ± 0.013

# Going on with the list.

row,Sequence,pre-steady-state target cleavage rate
1,CUUAAGGUCUGGAUCUACUGCGUUUCCUAA,0.00254 ± 0.0048
2,CUUAUCCUCUGGUUCUACUGGGUAACCUAA,0.268 ± 0.097
3,CUUAAGGUCUGGAUCUACGUGGGUUACCUAA,0.000869 ± 0.0084
4,CUUAAGGAGAGGAUCAUCUGGGUUACCUAA,0.000326 ± 0.016
5,CUUAAGGAGACCAUCAACUGCGUUACCUAA,0.000146 ± 0.028
6,CUUAAGGACUGGAUCUUCUGGGUUAGCUAA,0.0031 ± 0.011
7,CUUAAGGACAGGAUCUACUGGGUUACCAAA,0.00498 ± 0.0074
8,CUUAAGGAGACGAUCUACUAGGGUUACCUAA,0.00125 ± 0.0091
9,CUUAAGGACUGGAUGUACUGGGAUACCUAA,0.00345 ± 0.01
10,CUUAUCCUCUAGGAUCUACUGGGUUACCUAA,0.049 ± 0.012
11,CUUAACCUCUGGUUCUACUGGGUAACCUAA,0.14 ± 0.044
12,CUUAACCUCUGGAUCUACUGGCUUACCUAA,0.00249 ± 0.0045
13,CUUAACGUCUGGAUCUACUGGGUUACCUUA,0.0827 ± 0.015
14,CUUAAGGAGACCUACUACUGGGUUACCUAU [g2:g16:cont:t1U],0.000547 ± 0.018
15,CUUAAGGUCUGGAUCUACUGGGAUACGUAA,0.000959 ± 0.0092
16,CUUAAGCACUCGAUCUACUGGGUUACCUAA,0.417 ± 0.15
17,CUUAAGGUCUGGUUCUACUCGGUUACCUAA,0.00185 ± 0.0094
18,CUUAAGGAGACGAUCUACUGGGUUACCAUAA,0.000969 ± 0.012
19,CUUAAGGUCUGGAACUACUCGGUUACCUAA,0.00107 ± 0.015
20,CUUAAGGAGACCAUCUUCUGGCUUACCUAA,0.000768 ± 0.0066
21,CUUAAGGUCUGCUACUACUGGGUUACCUAA,0.00265 ± 0.01
22,CUUAAGGAGACCUACUACAGGGUUACCAAA,0.000344 ± 0.02
23,CUUAAGGAGUCGAUCUACUGGGAUACCUAA,0.000289 ± 0.027
24,CUUAAGGAGACGAUCUACUCGCUUACCUAA,0.00115 ± 0.0036
